Measured values reported in the supplement of paper PMC12067093, “Discovery and optimisation of a covalent ligand for TRIM25 and its application to targeted protein ubiquitination” (Chemical Science, 2025).
The list shows a part of the results.

Compound: Cc1cc(ccc1-c1ccccc1)C(=O)N1CCCN(CC1)C(=O)CCl [compound 10]
Test: probe-labelled cysteine peptide fold change vs DMSO (competition) (log2 fold change); higher = less target engagement (more negative = stronger competition)
Conditions: THP-1, incubation time: 4 h
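Also: competitive profiling in live THP-1 cells: cysteine peptides tagged with an iodoacetamide desthiobiotin (IA-DTB) probe, intensity after compound treatment relative to DMSO-treated cells.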

| Target | probe-labelled cysteine peptide fold change (10 µM) | probe-labelled cysteine peptide fold change (50 µM) |
| --- | --- | --- |
| FKBP5_Q13451_107_GEICHLLCKPEYAYGSAGSLPK (UniProt Q13451) | 0.0721 | -0.164 |
| FLII_Q13045_808_LGQELCGMLHRPR (UniProt Q13045) | -0.233 | -0.148 |
| GALK1_P51570_243_QCEEVAR (UniProt P51570) | -0.112 | -0.00408 |
| FILIP1L_Q4L180_737_IHEYMATEDLICHLQGDHSVLQK (UniProt Q4L180) | -0.0256 | -0.111 |
| FSCN1_Q16658_19_TANGTAEAVQIQFGLINCGNK (UniProt Q16658) | -0.0329 | -0.0765 |
| FNDC3A_Q9Y2H6_625_EHLCDR (UniProt Q9Y2H6) | -0.00617 | -0.0301 |
| FNBP1_Q96RU3_609_NEDEEGYVPTSYVEVCLDK (UniProt Q96RU3) | -0.0969 | -0.015 |
| FLNB_O75369_2431_MDCQETPEGYK (UniProt O75369) | -0.0675 | 0.0348 |
| FH_P07954_333_FEALAAHDALVELSGAMNTTACSLMK (UniProt P07954) | 0.152 | -0.0738 |
| FNBP4_Q8N3X1_603_GWSCHWDR (UniProt Q8N3X1) | 0.208 | 0.657 |
| FN1_P02751_374_TFYSCTTEGR (UniProt P02751) | -0.4 | -0.258 |
| FHL2_Q14192_251_QWHNDCFNCK (UniProt Q14192) | 0.117 | -0.13 |
| G3BP1_Q13283_73_VMSQNFTNCHTK (UniProt Q13283) | -0.169 | -0.109 |
| FRY_Q5TBA9_120_GEDPQFDQVISSMSSLSEYCLPSILR (UniProt Q5TBA9) | 0.261 | 0.241 |
| GALK1_P51570_243_RQCEEVAR (UniProt P51570) | -0.154 | -0.0906 |
| FKBP2_P26885_42_VDHCPIK (UniProt P26885) | -0.117 | -0.437 |
| FTH1_P02794_91+103_KPDCDDWESGLNAMECALHLEK (UniProt P02794) | 0.507 | 0.227 |
| FNDC3B_Q53EP0_674_TLSIAPGQCRPPR (UniProt Q53EP0) | -0.0164 | -0.0458 |
| FKBP3_Q00688_133_KGDVVHCWYTGTLQDGTVFDTNIQTSAKK (UniProt Q00688) | 0.0149 | -0.278 |
| FRA10AC1_Q70Z53_240_DCEESSHKK (UniProt Q70Z53) | -0.0608 | -0.359 |
| FYCO1_Q9BQS8_719_EGECQQLREEVEQCQQLAEAR (UniProt Q9BQS8) | -0.0866 | -0.273 |
| FN3KRP_Q9HA64_11_ELGCSSVR (UniProt Q9HA64) | -0.0443 | 0.412 |
| FRY_Q5TBA9_2009_IQACTQQGLSSK (UniProt Q5TBA9) | -0.419 | -0.465 |
| FUCA2_Q9BTY2_455_LLGHGQPLNWISLEQNGIMVELPQLTIHQMPCK (UniProt Q9BTY2) | 0.939 | -0.246 |
| FOCAD_Q5VW36_1559_CLLEMTDDDANR (UniProt Q5VW36) | 0.125 | 0.407 |
| FUBP1_Q96AE4_332_CQHAAEIITDLLR (UniProt Q96AE4) | 0.0726 | -0.0146 |
| FLAD1_Q8NFF5_236_LHYGTDPCTGQPFRFPLVSVR (UniProt Q8NFF5) | -0.12 | -0.247 |
| FHOD1_Q9Y613_43_APTCSLDGALPLGAQIPAVHR (UniProt Q9Y613) | -0.105 | 0.425 |
